Reference: the supplement of paper PMC12823440, “Inhibitors supercharge kinase turnover through native proteolytic circuits” (Nature, 2025)
This is one part of the list. The calls rarely recur for the same compound in another form.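 Kinases, fused to nanoluciferase, were expressed in K562 cells; luminescence was measured every 4 h from 2 to 18 h as percent of control (DMSO = 100%, positive control = 0%). A time point is decreased if signal falls significantly (2 sigma). Hits were called by the authors by a rule that is not shown; the count of time points alone does not decide it.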

The chains behind the UniProt entries cited, without tags or fusion partners. Where a name states a change or a piece, a line headed by the entry shows the natural chain unless it says otherwise.
UniProt P42680: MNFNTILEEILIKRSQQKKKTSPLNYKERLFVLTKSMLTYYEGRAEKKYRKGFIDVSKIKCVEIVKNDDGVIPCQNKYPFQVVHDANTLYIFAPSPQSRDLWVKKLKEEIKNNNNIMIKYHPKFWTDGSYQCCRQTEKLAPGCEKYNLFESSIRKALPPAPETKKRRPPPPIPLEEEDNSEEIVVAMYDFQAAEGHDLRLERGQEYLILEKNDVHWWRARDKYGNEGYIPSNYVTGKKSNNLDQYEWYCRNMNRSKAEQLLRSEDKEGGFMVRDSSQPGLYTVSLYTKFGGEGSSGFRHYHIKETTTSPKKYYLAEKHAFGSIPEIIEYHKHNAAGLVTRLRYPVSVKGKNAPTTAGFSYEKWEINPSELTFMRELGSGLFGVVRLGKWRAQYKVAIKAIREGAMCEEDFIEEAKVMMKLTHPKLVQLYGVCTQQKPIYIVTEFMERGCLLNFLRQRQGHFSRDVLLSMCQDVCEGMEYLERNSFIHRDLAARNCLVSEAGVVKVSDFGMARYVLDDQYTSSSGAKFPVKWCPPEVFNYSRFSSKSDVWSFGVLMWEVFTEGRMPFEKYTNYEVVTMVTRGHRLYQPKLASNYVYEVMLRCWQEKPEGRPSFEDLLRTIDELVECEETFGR
UniProt P07947, whole entry, looked up: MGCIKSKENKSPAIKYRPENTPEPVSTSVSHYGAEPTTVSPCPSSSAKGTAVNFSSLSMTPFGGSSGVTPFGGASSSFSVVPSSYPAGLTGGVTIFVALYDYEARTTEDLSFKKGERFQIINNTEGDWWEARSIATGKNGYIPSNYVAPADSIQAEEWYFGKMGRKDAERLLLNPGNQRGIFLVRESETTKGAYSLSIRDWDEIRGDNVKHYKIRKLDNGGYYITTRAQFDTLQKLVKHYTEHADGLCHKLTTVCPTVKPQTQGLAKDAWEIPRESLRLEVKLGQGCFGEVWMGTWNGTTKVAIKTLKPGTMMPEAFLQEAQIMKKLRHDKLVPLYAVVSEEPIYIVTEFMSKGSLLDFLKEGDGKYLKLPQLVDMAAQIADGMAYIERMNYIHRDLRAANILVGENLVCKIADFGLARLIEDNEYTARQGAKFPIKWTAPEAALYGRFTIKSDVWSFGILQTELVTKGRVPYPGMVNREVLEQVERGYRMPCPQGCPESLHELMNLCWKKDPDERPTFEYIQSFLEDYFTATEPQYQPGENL
UniProt P43403: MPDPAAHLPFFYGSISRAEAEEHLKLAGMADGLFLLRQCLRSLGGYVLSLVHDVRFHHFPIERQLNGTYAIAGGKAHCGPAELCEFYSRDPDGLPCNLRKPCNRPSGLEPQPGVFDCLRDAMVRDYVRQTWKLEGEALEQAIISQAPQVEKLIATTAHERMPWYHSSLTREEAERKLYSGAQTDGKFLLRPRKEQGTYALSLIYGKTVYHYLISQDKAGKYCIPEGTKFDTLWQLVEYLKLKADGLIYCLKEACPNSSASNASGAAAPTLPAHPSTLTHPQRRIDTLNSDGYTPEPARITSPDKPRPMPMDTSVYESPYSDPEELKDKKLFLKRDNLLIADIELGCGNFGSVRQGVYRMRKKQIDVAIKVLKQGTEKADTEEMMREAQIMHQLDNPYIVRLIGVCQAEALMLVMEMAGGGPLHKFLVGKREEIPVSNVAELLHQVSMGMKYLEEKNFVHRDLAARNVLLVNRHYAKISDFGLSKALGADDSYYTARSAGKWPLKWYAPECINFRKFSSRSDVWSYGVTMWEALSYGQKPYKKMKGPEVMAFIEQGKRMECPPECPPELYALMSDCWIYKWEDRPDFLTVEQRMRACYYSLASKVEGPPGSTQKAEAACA
UniProt P31749: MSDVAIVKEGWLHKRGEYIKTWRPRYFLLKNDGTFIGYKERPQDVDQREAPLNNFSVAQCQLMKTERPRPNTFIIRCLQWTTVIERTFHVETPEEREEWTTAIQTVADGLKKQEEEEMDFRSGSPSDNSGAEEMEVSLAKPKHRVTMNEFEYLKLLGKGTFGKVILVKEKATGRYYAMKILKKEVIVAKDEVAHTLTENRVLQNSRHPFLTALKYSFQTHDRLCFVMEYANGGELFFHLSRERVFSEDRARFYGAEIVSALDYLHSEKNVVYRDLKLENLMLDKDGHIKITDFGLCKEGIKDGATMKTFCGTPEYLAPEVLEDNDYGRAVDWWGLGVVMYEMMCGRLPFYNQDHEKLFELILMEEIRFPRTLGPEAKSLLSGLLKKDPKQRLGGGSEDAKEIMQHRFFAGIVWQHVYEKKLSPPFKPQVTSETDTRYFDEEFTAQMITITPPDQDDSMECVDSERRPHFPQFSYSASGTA
UniProt P10398: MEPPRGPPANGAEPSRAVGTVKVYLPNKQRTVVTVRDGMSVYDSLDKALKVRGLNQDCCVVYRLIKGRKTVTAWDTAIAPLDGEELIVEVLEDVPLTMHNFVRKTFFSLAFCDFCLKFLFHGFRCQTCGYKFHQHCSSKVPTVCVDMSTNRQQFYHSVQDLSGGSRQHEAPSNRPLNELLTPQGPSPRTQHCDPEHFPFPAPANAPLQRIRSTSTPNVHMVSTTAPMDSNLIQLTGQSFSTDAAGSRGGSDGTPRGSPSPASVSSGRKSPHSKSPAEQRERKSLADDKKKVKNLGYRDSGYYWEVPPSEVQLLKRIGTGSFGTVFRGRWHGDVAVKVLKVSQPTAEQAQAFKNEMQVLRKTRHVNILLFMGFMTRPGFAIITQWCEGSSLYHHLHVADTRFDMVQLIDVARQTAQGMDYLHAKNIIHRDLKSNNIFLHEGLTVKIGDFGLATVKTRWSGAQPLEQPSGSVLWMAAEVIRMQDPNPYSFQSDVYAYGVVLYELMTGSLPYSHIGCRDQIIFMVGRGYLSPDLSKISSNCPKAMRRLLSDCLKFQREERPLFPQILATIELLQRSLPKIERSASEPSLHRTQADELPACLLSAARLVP
UniProt O14965: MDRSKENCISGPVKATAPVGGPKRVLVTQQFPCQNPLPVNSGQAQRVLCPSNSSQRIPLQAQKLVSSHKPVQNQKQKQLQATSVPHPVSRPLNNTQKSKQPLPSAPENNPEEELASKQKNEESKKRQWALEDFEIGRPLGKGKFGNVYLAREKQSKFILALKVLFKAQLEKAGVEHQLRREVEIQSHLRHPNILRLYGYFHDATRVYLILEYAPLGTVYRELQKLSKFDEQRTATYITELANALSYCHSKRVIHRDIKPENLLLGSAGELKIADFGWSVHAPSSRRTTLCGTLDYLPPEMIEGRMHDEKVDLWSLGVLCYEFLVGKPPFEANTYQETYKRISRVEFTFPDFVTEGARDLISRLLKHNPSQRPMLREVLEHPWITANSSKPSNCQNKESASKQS
UniProt Q96GD4, whole entry: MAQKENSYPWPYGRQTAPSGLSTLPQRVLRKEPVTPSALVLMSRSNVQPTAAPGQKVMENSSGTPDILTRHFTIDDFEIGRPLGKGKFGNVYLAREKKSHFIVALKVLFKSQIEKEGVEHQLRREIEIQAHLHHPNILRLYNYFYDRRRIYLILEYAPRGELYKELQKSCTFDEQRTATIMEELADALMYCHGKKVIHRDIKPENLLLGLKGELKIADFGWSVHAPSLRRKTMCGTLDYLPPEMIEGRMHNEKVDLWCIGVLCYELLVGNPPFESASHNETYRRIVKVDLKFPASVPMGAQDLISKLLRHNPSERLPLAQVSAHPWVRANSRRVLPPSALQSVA
UniProt Q9UQB9: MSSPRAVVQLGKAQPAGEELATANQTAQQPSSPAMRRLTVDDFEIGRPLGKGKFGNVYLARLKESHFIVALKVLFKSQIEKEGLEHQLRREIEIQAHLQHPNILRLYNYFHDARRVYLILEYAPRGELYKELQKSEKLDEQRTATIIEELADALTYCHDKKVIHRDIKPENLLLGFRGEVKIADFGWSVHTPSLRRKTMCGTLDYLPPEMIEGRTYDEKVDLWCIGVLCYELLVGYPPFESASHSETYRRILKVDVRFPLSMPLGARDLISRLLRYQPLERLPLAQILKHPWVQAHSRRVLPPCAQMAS
UniProt P51451: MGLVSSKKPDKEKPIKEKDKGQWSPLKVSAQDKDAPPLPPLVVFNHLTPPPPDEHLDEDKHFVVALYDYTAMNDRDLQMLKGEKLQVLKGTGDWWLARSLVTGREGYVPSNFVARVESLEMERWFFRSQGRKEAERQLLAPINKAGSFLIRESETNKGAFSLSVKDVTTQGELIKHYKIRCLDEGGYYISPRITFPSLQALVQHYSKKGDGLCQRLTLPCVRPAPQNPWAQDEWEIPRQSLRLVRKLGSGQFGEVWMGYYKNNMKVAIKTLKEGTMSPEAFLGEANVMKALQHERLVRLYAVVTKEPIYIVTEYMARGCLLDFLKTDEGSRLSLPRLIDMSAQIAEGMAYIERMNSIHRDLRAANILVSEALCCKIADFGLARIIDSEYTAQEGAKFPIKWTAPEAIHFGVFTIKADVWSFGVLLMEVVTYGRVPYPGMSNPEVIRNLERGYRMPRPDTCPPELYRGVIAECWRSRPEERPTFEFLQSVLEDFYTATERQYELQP
UniProt P51813: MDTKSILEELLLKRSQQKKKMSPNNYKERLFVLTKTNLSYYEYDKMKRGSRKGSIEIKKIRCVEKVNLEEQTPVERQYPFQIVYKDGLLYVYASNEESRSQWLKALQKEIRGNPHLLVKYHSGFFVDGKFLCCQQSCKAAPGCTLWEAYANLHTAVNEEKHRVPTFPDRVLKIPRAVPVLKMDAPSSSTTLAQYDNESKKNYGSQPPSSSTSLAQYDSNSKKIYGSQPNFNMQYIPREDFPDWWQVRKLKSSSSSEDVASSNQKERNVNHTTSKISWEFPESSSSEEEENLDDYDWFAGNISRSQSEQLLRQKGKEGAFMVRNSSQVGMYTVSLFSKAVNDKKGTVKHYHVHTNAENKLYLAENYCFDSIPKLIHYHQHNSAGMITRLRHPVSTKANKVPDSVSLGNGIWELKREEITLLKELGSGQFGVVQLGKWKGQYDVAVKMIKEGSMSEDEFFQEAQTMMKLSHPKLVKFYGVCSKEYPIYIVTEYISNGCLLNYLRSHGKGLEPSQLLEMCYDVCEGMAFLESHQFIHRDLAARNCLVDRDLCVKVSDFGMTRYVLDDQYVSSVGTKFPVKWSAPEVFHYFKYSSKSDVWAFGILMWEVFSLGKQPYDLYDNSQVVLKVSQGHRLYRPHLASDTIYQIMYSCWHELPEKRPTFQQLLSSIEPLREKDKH
UniProt P15056, whole entry, looked up: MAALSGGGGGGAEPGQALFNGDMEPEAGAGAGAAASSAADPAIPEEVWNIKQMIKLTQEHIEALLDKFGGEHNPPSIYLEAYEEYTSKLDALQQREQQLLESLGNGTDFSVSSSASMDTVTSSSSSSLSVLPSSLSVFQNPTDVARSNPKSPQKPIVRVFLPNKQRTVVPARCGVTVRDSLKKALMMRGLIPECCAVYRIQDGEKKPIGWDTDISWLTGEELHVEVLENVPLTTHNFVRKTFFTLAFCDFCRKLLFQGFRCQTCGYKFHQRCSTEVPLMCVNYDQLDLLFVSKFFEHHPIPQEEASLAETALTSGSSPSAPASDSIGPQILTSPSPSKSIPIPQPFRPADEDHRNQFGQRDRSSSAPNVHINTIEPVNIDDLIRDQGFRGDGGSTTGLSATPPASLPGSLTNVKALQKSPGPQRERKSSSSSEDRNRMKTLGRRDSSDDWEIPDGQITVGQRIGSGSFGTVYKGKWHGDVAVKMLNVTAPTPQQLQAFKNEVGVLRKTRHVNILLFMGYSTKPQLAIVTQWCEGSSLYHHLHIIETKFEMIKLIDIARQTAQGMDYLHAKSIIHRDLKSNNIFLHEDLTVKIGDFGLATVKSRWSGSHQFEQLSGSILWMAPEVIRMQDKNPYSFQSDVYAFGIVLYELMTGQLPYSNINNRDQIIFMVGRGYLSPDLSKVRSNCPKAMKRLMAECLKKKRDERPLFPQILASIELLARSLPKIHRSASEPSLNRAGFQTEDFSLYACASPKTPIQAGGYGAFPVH
UniProt Q06187: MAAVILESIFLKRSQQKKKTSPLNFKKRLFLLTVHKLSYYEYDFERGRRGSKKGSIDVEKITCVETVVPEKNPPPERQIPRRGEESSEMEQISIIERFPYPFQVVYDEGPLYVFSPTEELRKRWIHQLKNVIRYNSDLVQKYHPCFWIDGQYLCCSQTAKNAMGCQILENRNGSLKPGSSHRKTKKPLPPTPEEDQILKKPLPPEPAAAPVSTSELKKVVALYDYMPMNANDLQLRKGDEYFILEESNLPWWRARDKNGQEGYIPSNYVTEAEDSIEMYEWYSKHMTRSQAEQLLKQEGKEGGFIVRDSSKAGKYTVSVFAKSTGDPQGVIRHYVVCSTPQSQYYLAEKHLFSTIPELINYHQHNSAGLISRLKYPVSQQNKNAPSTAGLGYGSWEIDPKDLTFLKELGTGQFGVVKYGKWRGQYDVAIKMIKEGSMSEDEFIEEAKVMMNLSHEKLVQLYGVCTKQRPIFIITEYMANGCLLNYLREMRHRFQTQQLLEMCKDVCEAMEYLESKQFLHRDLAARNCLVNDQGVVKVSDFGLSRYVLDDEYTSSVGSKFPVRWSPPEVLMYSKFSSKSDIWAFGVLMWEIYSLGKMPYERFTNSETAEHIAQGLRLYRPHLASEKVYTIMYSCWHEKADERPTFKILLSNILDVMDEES

Experiments:
Conditions in all cases: K562; 2-18 h
STK38 = STK38 (UniProt Q15208); assay: kinase-Nluc reporter destabilization hit call (1 = scored as downregulated) (binary); higher = compound decreases kinase abundance
SYK = SYK (UniProt P43405); assay: as above
TEC = TEC (UniProt P42680); assay: as above
TYK2 = TYK2 (UniProt P29597); assay: as above
ULK3 = ULK3 (UniProt Q6PHR2); assay: as above
YES1 = YES1 (UniProt P07947); assay: as above
ZAK = ZAK (UniProt Q9NYL2); assay: as above
ZAP70 = ZAP70 (UniProt P43403); assay: as above
ABL1 = ABL1 (UniProt P00519); assay: number of time points (of 5) at which kinase-Nluc abundance scored as decreased, DMSO-normalised (count); higher = more persistent destabilization
AKT1 = AKT1 (UniProt P31749); assay: as above
ALK = ALK (UniProt Q9UM73); assay: as above
ARAF = ARAF (UniProt P10398); assay: as above
AURKA = AURKA (UniProt O14965); assay: as above
AURKB = AURKB (UniProt Q96GD4); assay: as above
AURKC = AURKC (UniProt Q9UQB9); assay: as above
BLK = BLK (UniProt P51451); assay: as above
BMX = BMX (UniProt P51813); assay: as above
BRAF = BRAF (UniProt P15056); assay: as above
BRAF_V600E = assay: as above
BTK = BTK (UniProt Q06187); assay: as above

Compound | kinase-Nluc reporter destabilization hit call (STK38) | kinase-Nluc reporter destabilization hit call (SYK) | kinase-Nluc reporter destabilization hit call (TEC) | kinase-Nluc reporter destabilization hit call (TYK2) | kinase-Nluc reporter destabilization hit call (ULK3) | kinase-Nluc reporter destabilization hit call (YES1) | kinase-Nluc reporter destabilization hit call (ZAK) | kinase-Nluc reporter destabilization hit call (ZAP70) | number of time points (ABL1) | number of time points (AKT1) | number of time points (ALK) | number of time points (ARAF) | number of time points (AURKA) | number of time points (AURKB) | number of time points (AURKC) | number of time points (BLK) | number of time points (BMX) | number of time points (BRAF) | number of time points (BRAF_V600E) | number of time points (BTK)
CCN1CCN(Cc2ccc(Nc3ncc(F)c(-c4cc(F)c5nc(CO)n(C(C)C)c5c4)n3)nc2)CC1 [Abemaciclib metabolite M20] (2 µM) | inactive: 0 | inactive: 0 | inactive: 0 | inactive: 0 | inactive: 0 | inactive: 0 | inactive: 0 | inactive: 0 | 0 | 0 | 0 | 0 | 1 | 0 | 0 | 0 | 1 | 0 | 0 | 0
Cc1cc(Nc2nc(N[C@@H](C)c3ccc(F)cc3)c(C#N)cc2F)n[nH]1 (10 µM) | inactive: 0 | inactive: 0 | inactive: 0 | inactive: 0 | inactive: 0 | inactive: 0 | inactive: 0 | inactive: 0 | 0 | 0 | 0 | 0 | 0 | 0 | 0 | 0 | 0 | 0 | 1 | 0
N#Cc1ccc2ncnc(NC3CCC(N4CCOCC4)CC3)c2c1 (stereo not given) (10 µM) | inactive: 0 | inactive: 0 | inactive: 0 | inactive: 0 | inactive: 0 | inactive: 0 | inactive: 0 | inactive: 0 | 0 | 0 | 0 | 0 | 0 | 0 | 0 | 0 | 0 | 0 | 0 | 0
COCCOc1cnc(Sc2cc(C)c(-c3csc(NC(=O)c4ccncc4)n3)c(C)c2)cn1 [T-1101 (tosylate)] (2.5 µM) | inactive: 0 | inactive: 0 | inactive: 0 | inactive: 0 | inactive: 0 | inactive: 0 | inactive: 0 | inactive: 0 | 0 | 0 | 0 | 0 | 3 | 0 | 0 | 0 | 0 | 0 | 1 | 0
Cc1ccc(-c2c(C(=O)CF)n(CCCO)c3ncnc(N)c23)cc1 (10 µM) | inactive: 0 | inactive: 0 | inactive: 0 | inactive: 0 | inactive: 0 | inactive: 0 | inactive: 0 | inactive: 0 | 0 | 0 | 0 | 0 | 0 | 0 | 0 | 0 | 0 | 0 | 0 | 0
Cc1csc(-c2nnc(Nc3ccc(Oc4ncccc4-c4ccnc(N)n4)cc3)c3ccccc23)c1 (2.5 µM) | inactive: 0 | inactive: 0 | inactive: 0 | inactive: 0 | inactive: 0 | inactive: 0 | inactive: 0 | inactive: 0 | 2 | 0 | 0 | 0 | 0 | 0 | 0 | 0 | 0 | 0 | 0 | 0
O=[N+]([O-])c1cc(C(F)(F)F)cc([N+](=O)[O-])c1NNC(=S)Nc1ccc(F)cc1 (10 µM) | inactive: 0 | inactive: 0 | inactive: 0 | inactive: 0 | inactive: 0 | inactive: 0 | inactive: 0 | inactive: 0 | 0 | 0 | 0 | 0 | 0 | 0 | 0 | 0 | 0 | 0 | 0 | 0
CN1C(=O)C(Cc2c[nH]c3ccccc23)NC1=S (stereo not given) [Necrostatin-1] (10 µM) | inactive: 0 | inactive: 0 | inactive: 0 | inactive: 0 | inactive: 0 | inactive: 0 | inactive: 0 | inactive: 0 | 0 | 0 | 0 | 0 | 0 | 0 | 0 | 0 | 0 | 0 | 0 | 0
CNCc1ccccc1-c1csc([C@@H](C)Nc2nc(C)nc3cc(OC)c(OC)cc23)c1 (2.5 µM) | inactive: 0 | inactive: 0 | inactive: 0 | inactive: 0 | inactive: 0 | inactive: 0 | inactive: 0 | inactive: 0 | 0 | 0 | 0 | 0 | 0 | 0 | 0 | 0 | 0 | 0 | 2 | 0
C#CCN(C)C(=O)CCNc1nc(N2CCN(C(=O)C=C)CC2)c2cc(Cl)c(-c3c(O)cccc3F)c(F)c2n1 [ARS-1323-alkyne] (2.5 µM) | inactive: 0 | inactive: 0 | inactive: 0 | inactive: 0 | inactive: 0 | inactive: 0 | inactive: 0 | inactive: 0 | 0 | 0 | 0 | 0 | 0 | 0 | 0 | 0 | 0 | 0 | 0 | 0

Copied from the list:
`N#Cc1ccc2ncnc(NC3CCC(N4CCOCC4)CC3)c2c1` (stereo not given) (10 µM) | number of time points (BMX): 0
`CNCc1ccccc1-c1csc([C@@H](C)Nc2nc(C)nc3cc(OC)c(OC)cc23)c1` (2.5 µM) | number of time points (BRAF_V600E): 2
